Consider seven substances from doi:10.1101/2024.04.30.591961.

Protein sequences, listed by entry. Tags and fused reporters are not part of them. Lines headed by an entry give the natural chain unless they say otherwise; changes in a name come on top. Chains listed by the source or under a name are the forms on record and can include a tag or linker.
UniProt Q5I0X4: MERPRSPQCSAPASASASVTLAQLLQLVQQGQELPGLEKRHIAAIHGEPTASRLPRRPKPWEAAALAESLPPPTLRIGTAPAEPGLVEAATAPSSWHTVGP
HsPEX39(4A) (Q5I0X4, form named): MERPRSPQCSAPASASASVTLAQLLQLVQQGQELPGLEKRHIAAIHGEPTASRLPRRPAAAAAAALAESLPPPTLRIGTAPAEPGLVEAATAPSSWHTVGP
HsPEX39 (ΔN,4A) (Q5I0X4, form named): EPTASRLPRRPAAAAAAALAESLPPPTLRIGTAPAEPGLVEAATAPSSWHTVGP
UniProt Q92968: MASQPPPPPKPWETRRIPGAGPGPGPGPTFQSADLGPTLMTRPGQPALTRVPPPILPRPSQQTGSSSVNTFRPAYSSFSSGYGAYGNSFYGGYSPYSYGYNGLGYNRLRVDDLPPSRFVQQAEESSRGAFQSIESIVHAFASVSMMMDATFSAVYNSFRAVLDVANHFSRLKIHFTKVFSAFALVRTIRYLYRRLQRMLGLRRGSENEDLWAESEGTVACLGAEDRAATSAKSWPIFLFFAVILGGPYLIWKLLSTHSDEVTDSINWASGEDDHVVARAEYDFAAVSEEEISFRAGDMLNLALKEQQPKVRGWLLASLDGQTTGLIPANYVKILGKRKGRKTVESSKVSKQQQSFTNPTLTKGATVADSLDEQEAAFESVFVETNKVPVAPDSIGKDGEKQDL

Read-outs that look alike come from different tables or passages of the source. Results are given in words; binding and its absence hold for the method and conditions named. For some of these results: Binding seen in cells or lysates may run through a third protein. Some binding calls cover weakened binding; strength is not graded here. For some of these results: Where a sequence is shown, tags or fusion partners need not be part of it.

Assay [1] has as its target T1, radiolabeled H6PEX7 (human) (UniProt O00628).
T1 sequence (chain, [^35S]methionine label): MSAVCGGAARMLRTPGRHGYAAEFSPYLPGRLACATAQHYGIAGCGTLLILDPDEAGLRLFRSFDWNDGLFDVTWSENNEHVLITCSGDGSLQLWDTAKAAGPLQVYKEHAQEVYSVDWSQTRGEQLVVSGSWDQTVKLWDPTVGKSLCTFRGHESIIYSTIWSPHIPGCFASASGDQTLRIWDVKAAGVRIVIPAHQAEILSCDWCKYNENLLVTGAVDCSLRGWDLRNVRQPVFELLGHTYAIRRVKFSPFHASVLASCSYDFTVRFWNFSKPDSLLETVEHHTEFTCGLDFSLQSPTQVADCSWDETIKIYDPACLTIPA
Description: native gel or EMSA.

In assay [2] the target is T1, radiolabeled H6PEX7 (human). The experiment in a line: native gel or EMSA. This is another data set of the same source.
Assay [3] has the same target. Description: native gel or EMSA. The source holds these as a separate data set.
The target is the same in assay [4]. The experiment in a line: native gel or EMSA. This is another data set of the same source.
Assay [5] has the same target. Description: native gel or EMSA. This is another data set of the same source.
For assay [6] the target is unchanged. Description: native gel or EMSA. This is another data set of the same source.
The target is the same in assay [7]. The experiment in a line: native gel or EMSA. This is another data set of the same source.
Assay [8] concerns the target T2, PEX7-FLAG-HA (human) (UniProt O00628).
T2 sequence: T1 sequence (chain, [^35S]methionine label)
The experiment in a line: co-IP.

The target of assay [9] is HsPEX39-FLAG-HA (human) (UniProt Q5I0X4). Description: co-IP.
For assay [10], the target named is T2, PEX7-FLAG-HA (human). The experiment in a line: co-IP. The source holds these as a separate data set.
The target of assay [11] is T1, radiolabeled H6PEX7 (human). Description: native gel or EMSA. This is another data set of the same source.
Assay [12] shares this target. Description: native gel or EMSA. This is another data set of the same source.
Assay [13] shares this target. Description: native gel or EMSA. This is another data set of the same source.
Assay [14] shares this target. The experiment in a line: native gel or EMSA. This is another data set of the same source.

On to GST-HsPEX39 (from UniProt Q5I0X4 1-101), for which the binding result in [1], in assay [2], in assay [3], in assay [4], in assay [5] and in assay [6] was “binds” each time. Also, in assay [7], the binding entry is given as “binds”.

Turning to “endogenous HsPEX13 (from UniProt Q92968 1-403)”, the binding result is “binds” in assay [8] and “no binding” in assay [9].

Consider “endogenous HsPEX39 (from UniProt Q5I0X4 1-101)”, for which the binding result in assay [10] and in [8] was “binds” in each case.

“NtPEX13 (from UniProt Q92968 1-36) (domain or fragment)”: the binding entry in assay [5], in assay [11] and in assay [12] was “binds” throughout.

On to HsPEX39(4A) (from UniProt Q5I0X4 1-101), for which the binding result in assay [5], in assay [13] and in assay [14] was “no binding (tested: 4 ug in 20 uL)” throughout.

“HsPEX39(ΔN) (from UniProt Q5I0X4 48-101) (domain or fragment)”: the binding entry in assay [5] and in [13] was “binds” throughout.

As for “HsPEX39 (ΔN,4A) (from UniProt Q5I0X4 48-101) (domain or fragment)”, the binding result in assay [5], in [13] and in assay [14] was “no binding (tested: 4 ug in 20 uL)” each time.
